Data from PubChem BioAssay AID504467 (National Center for Advancing Translational Sciences (NCATS), 2011).
The campaign covered roughly 330,000 compounds. About 7,700 (2.3%) were called active. The inconclusive results got no clear call from the source; some entries with a clear call stand among them for comparison. The call rests on the fitted dose curve; in most records, active means well fitted inhibition curve with a large enough effect; inconclusive means small, poorly fitted or top-dose-only effect, or effect the other way; inactive means flat fitted curve, though single readings scatter. Potencies of inconclusive entries are doubtful fits and often do not repeat.

Test: qHTS screen for small molecules that inhibit ELG1-dependent DNA repair in human embryonic kidney (HEK293T) cells expressing luciferase-tagged ELG1; further: nearly all actives have a fitted effect of over 55% in size
Conditions: HEK293T ELG1-luciferase reporter, luminescence, 16 h, DNA damage induced by 5-fluorouridine; activity change, negative = inhibition: at 46.1 µM (top of the series)
Outline: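 Luminescence from the luciferase reporter, measured 30 min after ONE-Glo reagent at room temperature, was the read-out. Beforehand, 2,000 cells per well were exposed for 16 hr at 37 °C to 5-fluorouridine together with compound or vehicle.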
On the % scale 0 is the no-effect control and ±100 the full control effect; potency means the concentration at half of the fitted maximal effect.

Row | Structure (SMILES) | Potency | activity change, negative = inhibition
1 | O=[N+]([O-])c1ccc(S(=O)(=O)CC(CN2CCCCC2)N2CCCCC2)cc1 (configuration not stated) | inconclusive: 5.8 µM [inhibitor, partial curve, poor fit] | –
2 | CCN(CC)CCn1c2c(c(SCC(=O)Nc3ccc(C)c(F)c3)nc1=O)CCC2 | inconclusive: 5.8 µM [inhibitor, single point] | –
3 | CC(C)NS(=O)(=O)c1ccc(OCC(=O)Nc2cccc(F)c2)cc1 | – | inactive: 3.84%
4 | O=C(O)c1ccc(-c2nc(-c3ccc(Cl)cc3)cs2)cc1 | inconclusive: 1.83 µM [activator, partial curve] | –
5 | Cc1ccc(Oc2nc3ccccn3c(=O)c2/C=C(\C#N)C(=O)Nc2c(C)n(C)n(-c3ccccc3)c2=O)c(C)c1 | – | inactive: 8.5%
6 | C[C@H](CO)N1C[C@H](C)[C@@H](CN(C)Cc2ccncc2)Oc2c(NS(=O)(=O)c3cn(C)cn3)cccc2C1=O | – | inactive: 13.7%
7 | CC1(C)C(=O)Nc2ccccc2N1C(=O)COC(=O)COc1ccc(C#N)cc1 | inconclusive: 20.6 µM [activator, partial curve, poor fit] | –
8 | O=C(N/N=C/c1ccc[nH]1)c1ccc(Cl)cc1 | inconclusive: 20.6 µM [activator, partial curve] | –
9 | COc1ccc(NC(=O)CN2CCC(NC(=O)c3ccco3)CC2)c([N+](=O)[O-])c1 | inconclusive: 29.1 µM [inhibitor, single point] | –
10 | O=C(O)c1ccccc1Nc1ccccc1C(=O)O | – | inactive: -1.5%
11 | O=C(CN1C(=O)C(=O)c2ccccc21)NC1CCCCC1 | – | inactive: 0.836%
12 | O=C(CN(C(=O)Cn1nnc(-c2ccc(F)cc2)n1)c1ccc(F)cc1)NC1CCCC1 | inconclusive: 25.9 µM [inhibitor, single point] | –
13 | C=CCN(CC=C)CCOc1cc(C)ccc1[N+](=O)[O-] | – | inactive: 8.81%
14 | O=C(NNC1=Nc2ccccc2SC1)c1ccc(F)cc1 | active: 9.2 µM | –
15 | CCOc1ccccc1N1CCN(C(=O)CSc2ccc3c(c2)OCCO3)CC1 | – | inactive: -15.6%
16 | COc1cc(-n2c(C)nc3cc(C(=O)O)ccc32)cc(OC)c1OC | inconclusive: 29.1 µM [activator, single point] | –
17 | COCc1ccccc1C1=CC(=O)C[C@H](c2ccc(OC)cc2)C1 | – | inactive: -7.75%
18 | COc1ccc(-c2cc(C(F)(F)F)n3nc(C(=O)N4CCN(C(=O)c5ccco5)CC4)cc3n2)cc1 | inconclusive: 20.6 µM [inhibitor, single point] | –
19 | CCOc1ccc(S(=O)(=O)N2CCOCC2)cc1NC(=O)CN1C(=O)NC(C)(c2ccccc2)C1=O (configuration not stated) | inconclusive: 0.73 µM [inhibitor, single point] | –
20 | Cc1cc(/C=N/NC(=O)c2ccc(O)cc2)c(C)n1CC(C)C | inconclusive: 16.4 µM [activator, single point] | –
21 | COC(=O)c1cc(O)c(OCc2ccccc2)c(O)c1 | inconclusive: 20.6 µM [activator, partial curve, poor fit] | –
22 | Cc1cccc(NCc2ccccc2O)c1C | – | inactive: 15%
23 | Cc1cc(C)nc(Sc2nc(Nc3ccccc3)nc(Sc3nc(C)cc(C)n3)n2)n1 | – | inactive: 11.6%
24 | COc1ccc(NS(=O)(=O)c2cc(C(=O)O)ccc2C)cc1 | – | inconclusive: 68.8% [activator]

A draw from above in order of molar mass, smallest number first:
Row | Structure (SMILES) | Potency | activity change, negative = inhibition
4 | O=C(O)c1ccc(-c2nc(-c3ccc(Cl)cc3)cs2)cc1 | inconclusive: 1.83 µM [activator, partial curve] | –
16 | COc1cc(-n2c(C)nc3cc(C(=O)O)ccc32)cc(OC)c1OC | inconclusive: 29.1 µM [activator, single point] | –
15 | CCOc1ccccc1N1CCN(C(=O)CSc2ccc3c(c2)OCCO3)CC1 | – | inactive: -15.6%

More entries.

Row | Structure (SMILES) | Potency | activity change, negative = inhibition
25 | Cc1cccc(Nc2nnc(SCC(=O)NC(=O)Nc3ccc4c(c3)OCCO4)s2)c1 | inconclusive: 18.4 µM [activator, single point] | –
26 | COc1ccc(CNC(=O)CSc2nc(SC)ns2)cc1 | – | inactive: 5.39%
27 | CC(Oc1ccc(Cl)cc1)C(=O)NCC1CCCO1 (configuration not stated) | – | inactive: 3.4%
28 | Nc1nc2ccccc2n1/N=C/c1ccc(Br)cc1 | inconclusive: 11.6 µM [activator, partial curve] | –
29 | CC1(C)CC(N2CCCC2)=CC(=[N+]2CCCCCC2)C1 | active: 0.58 µM | –
30 | COc1ccc(NC(=O)Nc2ccc(OC)c(OC)c2)c([N+](=O)[O-])c1 | inconclusive: 29.1 µM [activator, single point] | –
31 | CC(=O)c1ccc(NC(=O)C2CCCO2)cc1 (configuration not stated) | inconclusive: 23.1 µM [activator, single point] | –
32 | CCCC(=O)Oc1ccc(-c2nccc(C(OC)OC)n2)cc1 | inconclusive: 16.4 µM [activator, partial curve, poor fit] | –
33 | C=CCn1c(SCc2c(C)noc2C)nc2sc3c(c2c1=O)CCCC3 | active: 18.4 µM | –
34 | O=C1N=C(N2CCCCC2)S/C1=C\c1ccc(Cl)cc1 | inconclusive: 18.3 µM [activator, partial curve] | –
35 | COc1ccc(NC(=O)c2cccs2)cc1OC | inconclusive: 8.2 µM [activator, single point] | –
36 | CCOc1ccc(-n2cccc2C=O)cc1 | inconclusive: 16.4 µM [activator, single point] | –
37 | Cc1cccc(NC(=O)[C@H](NC(=O)[C@@H]2Cc3ccccc3CN2)c2ccccc2)c1 | inconclusive: 14.6 µM [activator, partial curve] | –
38 | CCSCCc1nnc(NC(=O)Nc2cccc(C(F)(F)F)c2)s1 | inconclusive: 3.66 µM [inhibitor, single point] | –
39 | O=[N+]([O-])c1ccc(Cl)cc1N1CCCC1 | – | inactive: -7.51%
40 | COc1ccc(OCC(O)CN2CCc3ccccc3C2)cc1 (configuration not stated) | – | inactive: 7.52%
41 | O=C(CCC1COc2ccccc2O1)N1CCCC1 (configuration not stated) | inconclusive: 29.1 µM [activator, partial curve, poor fit] | –
42 | COc1cc(/C=N/NC(=O)c2cc3ccccc3[nH]2)ccc1O | – | inactive: -5.43%
43 | c1ccc(C2=NNC(c3ccccn3)=NN2)nc1 | inconclusive: 2.59 µM [activator, partial curve] | –
44 | CCOC(=O)C(=O)NNc1ccc(F)cc1 | inconclusive: 20.6 µM [inhibitor, single point] | –
45 | CCOC(=O)c1c(C)[nH]c(C(=O)N2CCc3cc(OC)c(OC)cc3C2)c1C | active: 1.46 µM | –
46 | CC(C)(C)NNC(=S)Nc1ccc(S(=O)(=O)N2CCOCC2)cc1 | inconclusive: 29.1 µM [inhibitor, single point] | –
47 | CC(C)C(=O)Nc1ccc2c(c1)oc1ccccc12 | inconclusive: 2.06 µM [activator, partial curve] | –
